From patent US20090233326A1, “METHOD FOR INDUCTION OF THE DIFFERENTIATION OF VISCERAL FAT CELL” (priority 2006, published 2009)
At least one structure is not confirmed: it was looked up by name or label, or the drawing left a doubt.

Tests used:
Type in all cases: cell-based, rat
[1] = system: VSC (visceral stromal cells=preadipocytes); experiment: Induction of VSC-to-VAC differentiation (lipid droplet formation, photographs after culture)
adiponectin = experiment: Adiponectin content of the culture medium (ELISA); conditions: 2.5 μM dexamethasone and 10 μg/mL insulin vs 10 μg/mL insulin, after culture for seven days
Method: The conventionally used dexamethasone-based differentiation induction system was first evaluated. 2.5 μM dexamethasone and 10 μg/mL insulin or 10 μg/mL insulin was added to the medium to allow for VSC differentiation and maturation for 7 days. […] When dexamethasone was also added to the differentiation induction culture medium, single cell enlargement was promoted (FIG. 1B), although there was no difference in the differentiation efficiency. In addition, the norepinephrine-induced triglyceride degradation reaction was reduced (data not shown).
After 9-day culture with 200 ng/mL IGF-1 and different insulin concentrations, the culture medium was taken and the adiponectin content was measured by ELISA. When VSCs were cultured for 9 days with the constant presence of 200 ng/mL IGF-1 and insulin at a concentration of 10 μg/mL (lane 1), 70 ng/mL (lane 2), 22 ng/mL (lane 3), or 2.5 ng/mL (lane 4), the amount of adiponectin secretion was reduced at insulin concentrations of 70 ng/mL and above (FIG. 9A). When VSCs were cultured for the first 4 days with 200 ng/mL IGF-1 and 2.5 ng/mL insulin followed by 5 days with 200 ng/mL IGF-1 and insulin at a concentration of 10 μg/mL (lane 1), 70 ng/mL (lane 2), 22 ng/mL (lane 3), or 2.5 ng/mL (lane 4), adiponectin secretion was again reduced at insulin concentrations of 70 ng/mL and above (FIG. 9B). […]

[2] = system: VAC (visceral adipocytes=mature adipocytes); experiment: Norepinephrine-induced triglyceride degradation reaction; conditions: 2.5 μM dexamethasone and 10 μg/mL insulin; data not shown
insulin receptor = experiment: Insulin receptor expression by immunoblotting with anti-IR antibody; conditions: 10 μM troglitazone from the fourth day; 7 days with 200 ng/mL IGF-1 and 0.85 ng/mL insulin
Method: The amount of insulin receptor expression in the maturation process was then examined (FIG. 4). After the VSCs had been cultured for 7, 8, or 9 days, the total cell lysate (20 μg protein) was separated by SDS-PAGE and the IR was detected by immunoblotting with anti-IR antibody. In addition, actin was detected by immunoblotting with anti-actin antibody as the loading control. […] VSCs were cultured for 3 days in the presence of 10 μg/mL insulin or 200 ng/mL IGF-1, after which the total cell lysate (20 μg protein) was separated by SDS-PAGE and the insulin receptor was detected by immunoblotting with anti-insulin receptor (IR) antibody. Actin was detected by immunoblotting with anti-actin antibody as a loading control. […] After culture for 7 days, the total cell lysate (20 μg protein) was separated by SDS-PAGE and the IR was determined by immunoblotting with anti-IR antibody. Actin was detected by immunoblotting with anti-actin antibody as a loading control.

[3] = 2.5 μM dexamethasone and 10 μg/mL insulin vs 10 μg/mL insulin, 7 days

| Compound | differentiation efficiency [1, 3] | single cell enlargement [1, 3] | amount of adiponectin present in the culture medium (adiponectin) | norepinephrine-induced triglyceride degradation reaction [2] | insulin receptor expression (insulin receptor) | morphology ([1]; 10 μM troglitazone from the fourth day, 7 days with 200 ng/mL IGF-1 and 0.85 ng/mL insulin) |
| --- | --- | --- | --- | --- | --- | --- |
| C[C@@H]1C[C@H]2[C@@H]3CCC4=CC(=O)C=C[C@]4(C)[C@@]3(F)[C@@H](O)C[C@]2(C)[C@@]1(O)C(=O)CO [dexamethasone, reference compound] | no difference | promoted | a clear decline | reduced | – | – |
| Cc1c(C)c2c(c(C)c1O)CCC(C)(COc1ccc(CC3SC(=O)NC3=O)cc1)O2 (stereo not drawn) [troglitazone, reference compound] | – | – | – | – | increased | no changes |
